Reference: PubChem BioAssay AID445 (National Center for Advancing Translational Sciences (NCATS), 2006)
Some of the results follow. These are further read-outs of the screen, such as a control signal, another cell line or another target. No call is given for them. Compounds called inactive in the main read-out are mostly missing here. Words in brackets tell the shape of the fitted curve; partial curves, single points and poor fits give uncertain potencies.

assay: IkB Signaling; settings: ABC-DLBCL IkBa-CBG/CBR dual luciferase ratio (green luciferase fused to IkBa over red control in OCI-Ly3 lymphoma cells), 4 h; measured here: control luc red channel unless noted
Outline: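 Luminescence ratio of IκBα-fused green versus native red beetle luciferase in OCI-Ly3 cells, 4 h post-doxycycline with compound; red signal alone, scaled from basal (0%) to zero light (-100%), flagged nonspecific or cytotoxic effects.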

Row | SMILES | AC50
1 | COc1ccc(-c2noc(-c3cccc(OC)c3OC)n2)cc1 | 39.8 µM [falling, single point]
2 | CCN(CC)S(=O)(=O)c1ccc2oc(C(=O)Nc3ccc(OC)cc3OC)c(C)c2c1 | 3.16 µM [rising, full curve, poor fit] [measured here: IkB-luc green channel]
3 | COc1ccc(N(Cc2cccs2)C(=O)COc2cc(C)c(Cl)c(C)c2)cc1 | 15.8 µM [falling, partial curve]
4 | Cc1cccc(NC(=O)Cc2ccc(-n3c(C)nc4cccnc43)cc2)c1C | 25.1 µM [falling, single point]
5 | Cc1cc(-c2ccc(S(=O)(=O)Nc3ccc(Br)c(C)c3)s2)on1 | 20 µM [falling, partial curve]
6 | CCOC(=O)C1CCN(C(=O)c2oc3ccc(S(=O)(=O)N4CC(C)CC(C)C4)cc3c2C)CC1 (stereo unspecified) | 10 µM [falling, partial curve]
7 | Cc1ccc2c(c1)-c1c(cnn1CC(=O)N1CCN(c3cc(Cl)ccc3C)CC1)CO2 | 25.1 µM [falling, partial curve]
8 | CC(C)C(NS(=O)(=O)c1cccc2cccnc12)C(=O)Nc1ccc(OC(F)(F)F)cc1 (stereo unspecified) | 25.1 µM [falling, single point]
9 | O=C(c1ccccc1)c1ccc2nc(Nc3cc(Cl)ccc3O)c3nncn3c2c1 | 0.316 µM [rising, partial curve]
10 | Cc1ccc(C)c(NC(=O)NCc2ccc3c(c2)CCN3C(=O)c2ccccc2)c1 | 39.8 µM [rising, single point] [measured here: IkB-luc green channel]
11 | COc1ccc(S(=O)(=O)NCc2ccc(C(=O)NCc3ccccc3)cc2)cc1 | 3.16 µM [falling, full curve, poor fit]
12 | O=C(Cn1c2ncccc2c(=O)n1-c1ccccc1)Nc1ccc(Cl)cc1C(F)(F)F | 3.98 µM [rising, partial curve]
13 | COCc1cc(C)nc2sc3c(c12)NC(c1ccc(O)cc1)N(c1ccc(C)cc1)C3=O (stereo unspecified) | 15.8 µM [falling, partial curve]
14 | CCN(C(=O)c1cn(-c2ccc(OC)cc2)c(=O)c2ccccc12)c1cccc(Cl)c1 | 12.6 µM [falling, partial curve]
15 | Cc1cccc(C(=O)Nc2ccc3oc(-c4ccncc4)nc3c2)c1 | 39.8 µM [falling, single point]
16 | CCOC(=O)C1CCCN(S(=O)(=O)c2ccc3[nH]c(=O)oc3c2)C1 (stereo unspecified) | 20 µM [falling, single point]

4 compounds out of the list, arranged by molar mass, rising:
Row | SMILES | AC50
1 | COc1ccc(-c2noc(-c3cccc(OC)c3OC)n2)cc1 | 39.8 µM [falling, single point]
15 | Cc1cccc(C(=O)Nc2ccc3oc(-c4ccncc4)nc3c2)c1 | 39.8 µM [falling, single point]
7 | Cc1ccc2c(c1)-c1c(cnn1CC(=O)N1CCN(c3cc(Cl)ccc3C)CC1)CO2 | 25.1 µM [falling, partial curve]
12 | O=C(Cn1c2ncccc2c(=O)n1-c1ccccc1)Nc1ccc(Cl)cc1C(F)(F)F | 3.98 µM [rising, partial curve]
